PubChem BioAssay AID652243 – Drosophila RNAi Screening Center | 2013

- Aim: 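Fly regulators of androgen-dependent reporter output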 (primary screen)
- System: Drosophila S2R+ cells
- Reagent: long dsRNA against Drosophila genes
- Timing: 72 h (48 h, then 24 h hormone)
- Conditions: synthetic androgen R1881 at 10 nM for 24 h
- Read-out: 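Firefly light from an androgen-responsive reporter and Renilla control light per well, raw and unnormalised, for each of two replicates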
- Scale: firefly reporter light: higher = more light from androgen-responsive reporter; Renilla control light: higher = more constitutive control signal (cell number, transfection)
- Call rule: 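Hit when the log firefly-to-Renilla ratio dropped or increased by a fixed fold versus the mean of GFP or LacZ controls across duplicate plates; lowering cut given as 1.5 and as 3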
- Calls: active = hit: reporter lowered or raised; inactive = no hit
In all, the deposit lists about 24,000 reagents; this is an unselected part of those with a known target gene and a result. Over the whole deposit, 246 (1%) were called active. 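Plates not normalised; calls are printed but the firefly/Renilla ratio behind them is not deposited; fold cut for lowering reported inconsistently.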 The raw values are shown without normalisation. The numbers tell different reagents against one gene apart. The record does not give: the amount of reagent.

gene,reagent,"firefly reporter light, replicate 1","firefly reporter light, replicate 2","Renilla control light, replicate 1","Renilla control light, replicate 2",Outcome
AMPKalpha (AMP-activated protein kinase alpha subunit),1,70461,1.04e5,7.56e5,5.44e5,inactive
AMPKalpha (AMP-activated protein kinase alpha subunit),2,4.41e5,4.66e5,1.52e6,1.70e6,inactive
AMPKalpha (AMP-activated protein kinase alpha subunit),3,,,,,inactive
CG17267,1,2.19e5,2.54e5,3.37e6,3.04e6,inactive
CG8907,1,29510,64191,3.47e5,4.84e5,inactive
CG8907,2,2.38e5,2.48e5,6.16e5,8.41e5,inactive
CG13321,1,3.68e5,2.97e5,1.62e6,2.00e6,inactive
CG13321,2,6.28e5,5.24e5,8.40e5,9.35e5,inactive
ORMDL (Orosomucoid 1-like),1,2.03e5,2.00e5,2.07e6,2.47e6,inactive
ORMDL (Orosomucoid 1-like),2,2.17e5,2.30e5,4.59e5,7.57e5,inactive
CG18809,1,4.76e5,1.82e5,1.59e6,5.25e5,inactive
CG18809,2,8.02e5,6.38e5,8.26e5,5.72e5,inactive
CG13454,1,4.61e5,4.39e5,2.01e6,3.23e6,inactive
"TrpRS-m (Tryptophanyl-tRNA synthetase, mitochondrial)",1,72537,55296,4.39e5,3.91e5,inactive
CG6511,1,1.08e5,1.06e5,1.90e6,1.44e6,inactive
LysX (Lysozyme X),1,1.18e5,2.10e5,1.66e6,1.98e6,inactive
Ir25a (Ionotropic receptor 25a),1,54530,80284,4.85e5,7.45e5,inactive
Ir25a (Ionotropic receptor 25a),2,3.34e5,2.38e5,9.32e5,5.72e5,inactive
Ccp84Ag,1,89164,1.37e5,2.29e6,2.10e6,inactive
Ccp84Ag,2,5.41e5,4.67e5,1.41e6,1.24e6,inactive
Ccp84Ag,3,8.95e5,1.08e6,1.53e6,1.51e6,inactive
Rbp6 (RNA-binding protein 6),1,2.38e5,2.31e5,2.23e6,2.30e6,inactive
Rbp6 (RNA-binding protein 6),2,4.09e5,4.22e5,3.26e6,3.29e6,inactive
Rbp6 (RNA-binding protein 6),3,7.94e5,7.87e5,1.61e6,1.56e6,inactive
Rbp6 (RNA-binding protein 6),4,8.95e5,7.77e5,1.75e6,1.75e6,inactive
msl-1 (male-specific lethal 1),1,1.12e5,1.05e5,1.06e6,1.07e6,inactive
CG42675,1,17872,23631,2.30e5,2.28e5,inactive
CG42675,2,5.56e5,4.91e5,1.12e6,1.01e6,inactive
CG42675,3,8.98e5,5.48e5,1.08e6,1.01e6,inactive
CG42675,4,2.84e5,2.63e5,6.12e5,5.14e5,inactive
CG42675,5,,,,,inactive
CG33792,1,1.38e6,1.18e6,2.63e6,2.07e6,inactive
GlcT (Glucosylceramide synthase),1,9.03e5,9.91e5,1.44e6,1.06e6,inactive
GlcT (Glucosylceramide synthase),2,6.26e5,4.17e5,1.59e6,1.17e6,inactive

Entries above whose gene name starts with R or r (4):
gene,reagent,"firefly reporter light, replicate 1","firefly reporter light, replicate 2","Renilla control light, replicate 1","Renilla control light, replicate 2",Outcome
Rbp6 (RNA-binding protein 6),1,2.38e5,2.31e5,2.23e6,2.30e6,inactive
Rbp6 (RNA-binding protein 6),2,4.09e5,4.22e5,3.26e6,3.29e6,inactive
Rbp6 (RNA-binding protein 6),3,7.94e5,7.87e5,1.61e6,1.56e6,inactive
Rbp6 (RNA-binding protein 6),4,8.95e5,7.77e5,1.75e6,1.75e6,inactive

Continued.
gene,reagent,"firefly reporter light, replicate 1","firefly reporter light, replicate 2","Renilla control light, replicate 1","Renilla control light, replicate 2",Outcome
Atxn7 (Ataxin 7),1,8.30e5,9.02e5,1.41e6,1.60e6,inactive
ebd1 (earthbound 1),1,7.90e5,6.96e5,1.01e6,6.22e5,inactive
ebd1 (earthbound 1),2,3.98e5,4.13e5,6.64e5,6.64e5,inactive
dac (dachshund),1,2.39e5,2.00e5,2.24e6,2.30e6,inactive
tbrd-3,1,3.25e5,3.14e5,2.26e6,1.19e6,inactive
tbrd-3,2,3.77e5,4.27e5,6.93e5,5.74e5,inactive
X11L,1,2.99e5,3.03e5,1.89e6,1.71e6,inactive
X11L,2,3.64e5,4.19e5,4.53e6,4.66e6,active
X11L,3,2.25e5,2.62e5,6.02e5,3.67e5,inactive
Dpit47 (DNA polymerase interacting tpr containing protein of 47kD),1,2.55e5,1.98e5,1.20e6,7.45e5,inactive
Dpit47 (DNA polymerase interacting tpr containing protein of 47kD),2,3.94e5,4.41e5,1.10e6,1.37e6,inactive
sut2 (sugar transporter 2),1,1.21e6,5.27e5,1.67e6,9.22e5,inactive
CG42566,1,6.78e5,6.13e5,1.29e6,1.09e6,inactive
CG15109,1,1.05e5,1.50e5,1.54e6,1.82e6,inactive
CG15109,2,2.97e5,2.58e5,8.32e5,6.48e5,inactive
CG13062,1,2.94e5,1.70e5,1.88e6,1.56e6,inactive
CG13062,2,2.84e5,2.24e5,6.33e5,6.41e5,inactive
CG13062,3,2.56e5,2.36e5,6.85e5,1.03e6,inactive
Tim17b2 (Translocase inner membrane 17),1,4.61e5,7.29e5,1.06e6,1.74e6,inactive
prod (proliferation disrupter),1,3.89e5,3.98e5,8.36e5,7.98e5,inactive
prod (proliferation disrupter),2,4.60e5,4.04e5,2.35e5,4.44e5,inactive
Larp7 (La related protein 7),1,1.13e5,97340,1.74e6,1.75e6,inactive
Larp7 (La related protein 7),2,2.55e5,3.33e5,7.70e5,6.42e5,inactive
CG12725,1,5.61e5,5.64e5,3.34e6,4.36e6,inactive
CG12725,2,1.01e6,1.04e6,1.07e6,9.81e5,inactive
